Measurements taken from patent publication US9132164B2, “Pharmaceutical compositions comprising angiotensin-(1-9), derivatives thereof, or a vector expressing ACE2, useful for treating cardiovascular, pulmonary, cerebral, and/or renal remodeling” (PONTIFICIA UNIVERSIDAD CATOLICA DE CHILE, priority 2008, dated 2015).
No end group written: not given here.

What was measured:
[1] = tested on: rats with myocardial infarction (left coronary artery ligation); assay: Effects of angiotensin-(1-9) administration on hemodynamic parameters and left ventricle weight in infarcted rats; assay type: in vivo, Sprague Dawley rats; settings: infarcted rats (MI), osmotic mini-pump 14 days, average ± SEM
Method: For studies with angiotensin-(1-9) 28 rats were randomly distributed into two groups and underwent a sham surgery (n=8) or infarction following left coronary artery ligation (n=20). The infarcted rats were randomized to receive the either the carrier, angiotensin-(1-9) (463 ng/kg of body weight for 14 days) or angiotensin-(1-9) plus A779 (463 ng of angiotensin-(1-9)/kg of body weight/min and 100 ng of A779/kg/min for 14 days) by means of osmotic mini-pumps (ALZET) implanted into the jugular under sedation with ketamine-HCl/xilazine (35/7 mg/kg intraperitoneal, respectively).
(§1) Systolic blood pressure (SBP) was determined by using the “tail-cuff” method by investigators who were blind to the treatment group. Left ventricle function was determined by transthoracic bidimensional echocardiography using a Sonos 5000 equipped with a 5 to 12 MHz sectorial electronic ultraband S12 Philips transducer. The following echocardiographic parameters were determined: left ventricular end-systolic diameter (LVESD), left ventricular end diastolic diameter (LVEDD), left ventricular fractional shortening (LVFS), left ventricular anterior wall thickness (LVAWT), and left ventricular posterior wall thickness (LLVWT). […]

[2] = tested on: sham and infarcted rats (left coronary artery ligation); assay: Effect of candesartan and enalapril on blood pressure, morphometry and function of the left ventricle after coronary artery ligation; assay type: in vivo, Sprague Dawley rats; settings: 10 mg/kg daily by gavage, 8 weeks, average ± SEM
Method: Male Sprague Dawley rats were kept in cages with access to water and food ad libitum. This procedure was performed in accordance with the Guide for the Care and Use of Laboratory Animals, published by “U.S. National Institutes of Health” (NIH publication No 85-23, revised 1985) and was approved by our Institutional Ethics Committee. […] Infarct size in survivors was determined by planimetry of endocardial circumference of left ventricle on histological sections. […]
as §1

Molecule	BW [1]	BW ([1]; listed as Ang-(1-9))	BW ([2]; infarcted rats (MI))	BW ([2]; sham rats)
DRVYIHPFH [angiotensin-(1-9)]	without observing changes	274 ± 24 g		
CCOC(=O)[C@H](CCc1ccccc1)N[C@@H](C)C(=O)N1CCC[C@H]1C(=O)O [enalapril]			345 ± 4 g	350 ± 7 g
